Test results as given in publication PMC10374565.
No constants are given. Whether binding was seen depends on the method and setting. In cells and extracts the contact can be indirect. A yes stands for co-enrichment or nearness to the bait. Other partners may have been found. Sequences can lack the tags named with a protein.

Sequences of proteins named here, by UniProt entry; tags and fusion partners are left off.
UniProt P48643: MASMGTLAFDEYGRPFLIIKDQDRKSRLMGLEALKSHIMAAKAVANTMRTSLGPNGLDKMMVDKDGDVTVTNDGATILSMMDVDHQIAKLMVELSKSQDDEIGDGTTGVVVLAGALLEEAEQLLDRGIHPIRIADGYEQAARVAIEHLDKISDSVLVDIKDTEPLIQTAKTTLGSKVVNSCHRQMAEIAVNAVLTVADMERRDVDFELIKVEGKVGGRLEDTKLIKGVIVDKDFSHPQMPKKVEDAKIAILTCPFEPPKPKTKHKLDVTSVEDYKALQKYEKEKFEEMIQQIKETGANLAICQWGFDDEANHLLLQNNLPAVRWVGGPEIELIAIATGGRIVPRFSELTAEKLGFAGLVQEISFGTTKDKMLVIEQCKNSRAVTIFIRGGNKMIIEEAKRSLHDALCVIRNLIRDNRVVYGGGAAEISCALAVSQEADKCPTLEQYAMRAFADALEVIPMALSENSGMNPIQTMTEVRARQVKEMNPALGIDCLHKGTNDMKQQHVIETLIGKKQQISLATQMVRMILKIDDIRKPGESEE
UniProt Q99832: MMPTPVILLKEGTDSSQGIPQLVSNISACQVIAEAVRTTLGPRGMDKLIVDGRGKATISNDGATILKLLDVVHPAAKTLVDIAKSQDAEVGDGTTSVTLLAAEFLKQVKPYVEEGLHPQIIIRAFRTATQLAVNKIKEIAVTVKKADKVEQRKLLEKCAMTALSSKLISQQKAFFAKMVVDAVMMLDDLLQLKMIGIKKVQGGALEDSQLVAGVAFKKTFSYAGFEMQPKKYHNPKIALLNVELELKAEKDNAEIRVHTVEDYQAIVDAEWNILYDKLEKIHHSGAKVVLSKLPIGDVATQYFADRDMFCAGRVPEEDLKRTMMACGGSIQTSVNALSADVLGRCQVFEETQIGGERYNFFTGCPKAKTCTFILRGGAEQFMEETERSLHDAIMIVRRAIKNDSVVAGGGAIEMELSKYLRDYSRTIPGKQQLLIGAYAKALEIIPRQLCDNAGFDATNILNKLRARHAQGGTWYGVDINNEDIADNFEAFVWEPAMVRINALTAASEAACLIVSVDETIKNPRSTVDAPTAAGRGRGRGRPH
UniProt P50990: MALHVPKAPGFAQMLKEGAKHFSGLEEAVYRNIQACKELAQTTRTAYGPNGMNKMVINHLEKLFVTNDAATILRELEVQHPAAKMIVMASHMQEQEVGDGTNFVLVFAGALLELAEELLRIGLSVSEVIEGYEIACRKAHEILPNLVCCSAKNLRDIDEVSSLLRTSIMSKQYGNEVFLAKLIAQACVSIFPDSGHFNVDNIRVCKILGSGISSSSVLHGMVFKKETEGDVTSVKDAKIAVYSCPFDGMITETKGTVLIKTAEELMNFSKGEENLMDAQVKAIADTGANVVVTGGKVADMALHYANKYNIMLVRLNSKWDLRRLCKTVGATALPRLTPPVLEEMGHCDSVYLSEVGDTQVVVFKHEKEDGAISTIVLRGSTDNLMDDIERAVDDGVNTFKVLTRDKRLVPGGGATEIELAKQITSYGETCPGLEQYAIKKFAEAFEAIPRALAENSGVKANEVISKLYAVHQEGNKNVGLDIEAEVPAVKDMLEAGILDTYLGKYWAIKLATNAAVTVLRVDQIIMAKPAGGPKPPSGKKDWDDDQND
UniProt P67809: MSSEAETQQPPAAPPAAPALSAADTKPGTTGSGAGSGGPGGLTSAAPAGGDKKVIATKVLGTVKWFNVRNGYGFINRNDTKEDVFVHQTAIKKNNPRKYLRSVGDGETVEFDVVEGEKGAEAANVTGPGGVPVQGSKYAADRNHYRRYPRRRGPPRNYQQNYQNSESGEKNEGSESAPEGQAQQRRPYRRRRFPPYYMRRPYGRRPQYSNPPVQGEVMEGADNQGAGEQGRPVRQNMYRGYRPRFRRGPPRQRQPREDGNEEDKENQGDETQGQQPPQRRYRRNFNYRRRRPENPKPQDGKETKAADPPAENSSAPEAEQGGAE

T1: Flag-tagged THOC3 (human) (UniProt Q96J01)
T1 sequence: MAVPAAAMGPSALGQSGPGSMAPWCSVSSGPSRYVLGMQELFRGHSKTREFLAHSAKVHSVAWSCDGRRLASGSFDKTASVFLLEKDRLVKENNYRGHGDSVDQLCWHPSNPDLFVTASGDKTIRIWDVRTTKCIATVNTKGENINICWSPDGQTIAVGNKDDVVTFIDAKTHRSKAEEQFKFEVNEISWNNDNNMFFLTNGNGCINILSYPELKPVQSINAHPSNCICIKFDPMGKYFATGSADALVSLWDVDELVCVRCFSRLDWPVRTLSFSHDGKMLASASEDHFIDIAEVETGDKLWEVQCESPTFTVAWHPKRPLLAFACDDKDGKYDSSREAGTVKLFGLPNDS

B1: CCT2 (protein, UniProt P78371 1-535)
chain: MASLSLAPVNIFKAGADEERAETARLTSFIGAIAIGDLVKSTLGPKGMDKILLSSGRDASLMVTNDGATILKNIGVDNPAAKVLVDMSRVQDDEVGDGTTSVTVLAAELLREAESLIAKKIHPQTIIAGWREATKAAREALLSSAVDHGSDEVKFRQDLMNIAGTTLSSKLLTHHKDHFTKLAVEAVLRLKGSGNLEAIHIIKKLGGSLADSYLDEGFLLDKKIGVNQPKRIENAKILIANTGMDTDKIKIFGSRVRVDSTAKVAEIEHAEKEKMKEKVERILKHGINCFINRQLIYNYPEQLFGAAGVMAIEHADFAGVERLALVTGGEIASTFDHPELVKLGSCKLIEEVMIGEDKLIHFSGVALGEACTIVLRGATQQILDEAERSLHDALCVLAQTVKDSRTVYGGGCSEMLMAHAVTQLANRTPGKEAVAMESYAKALRMLPTIIADNAGYDSADLVAQLRAAHSEGNTTAGLDMREGTIGDMAILGITESFQVKRQVLLSAAEAAEVILRVDNIIKAAPRKRVPDHHPC

The molecules below were run against T1, Flag-tagged THOC3 (human) (assay: affinity purification with mass spectrometry; immunoprecipitation with Flag and IgG antibodies from H1703 cells; silver-stained bands excised, in-gel trypsin digestion, nanoLC-MS/MS (Orbitrap Fusion), Mascot search).

binding, binds:
CCT5 (from UniProt P48643 1-541), CCT7 (from UniProt Q99832 1-543), CCT8 (from UniProt P50990 1-548), YBX1 (from UniProt P67809 1-324), B1
